{
  "source": "patent US20100003250A1",
  "about": "“(2-ARYL-7H-PYRROLO[2,3-D]PYRIMIDIN-4-YL)MORPHOLINE COMPOUNDS, THEIR USE AS MTOR KINASE AND PI3 KINASE INHIBITORS, AND THEIR SYNTHESES” (Wyeth, priority 2008, published 2010)",
  "origin": "cited, not measured here",
  "system": "prostrate, breast, ovarian, lung, multiple myeloma, and brain cancers",
  "conditions": "cited from earlier work",
  "note": "At least one compound was matched to its structure with a doubt left.",
  "data": [
    {"compound": "N=C(N)NCCC[C@H](NC(=O)CCC(=O)OC[N+]1(c2cc(=O)c3cccc(-c4ccccc4)c3o2)CCOCC1)C(=O)NCC(=O)N[C@@H](CC(=O)O)C(=O)N[C@@H](CO)C(=O)[O-]", "note": "[SF-1126]", "values": [
      {"measurement": "activity in preclinical mouse cancer models", "value": "active"}
    ]}
  ]
}
